In patent US4482548A, “Analgesic pharmaceutical compositions containing 5-phenyl-1,4-benzo diazepine compounds and a method of using same” (Kali-Chemie Pharma GmbH, priority 1982, dated 1984):

Experiment: Acute toxicity on mice
Conditions: mouse, in vivo, po

With `CN1C(=O)CN=C(c2ccccc2)c2cc(Cl)ccc21` [Diazepam, 7-chloro-1-methyl-5-phenyl-1,3-dihydro-2H-1,4-benzo diazepin-2-one, reference compound] the LD50 was 825 mg/kg.
